From article PMC5443481, “Binding of CIB1 to the αIIb tail of αIIbβ3 is required for FAK recruitment and activation in platelets” (PLoS ONE, 2017)
These are yes or no findings as the source states them, for the method shown. Binding seen in cells or lysates may run through a third protein. Binding calls can cover weak binding; strength is not graded here.

What was measured:
[1] = target: T1, calcium- and integrin-binding protein 1 (CIB1) (human (endogenous in platelets)) (UniProt Q99828); assay: co-IP; anti-CIB1 immunoprecipitates of lysates of human platelets incorporated (DMSO method) with αIIb peptide (2.5 μM), scrambled peptide, anti-CIB1 or cIgG and spread on Fg; the pairs that are blocked
T1 sequence: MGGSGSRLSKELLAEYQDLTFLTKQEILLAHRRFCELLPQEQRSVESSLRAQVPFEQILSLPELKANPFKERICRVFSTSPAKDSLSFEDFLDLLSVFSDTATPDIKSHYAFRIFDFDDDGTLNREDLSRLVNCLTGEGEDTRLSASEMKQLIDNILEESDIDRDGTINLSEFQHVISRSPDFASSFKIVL

[2] = target: T1, calcium- and integrin-binding protein 1 (CIB1) (human (endogenous in platelets)); assay: co-IP; anti-CIB1 immunoprecipitates (overnight 4°C, protein G-Sepharose) of pre-cleared 1% Nonidet P-40 lysates of washed human platelets exposed to BSA or immobilized Fg for ~45 min; blots for αIIb, FAK, c-Src; treatments: DMSO, BAPTA-AM (50 μM), cytochalasin D after adhesion

Q: With “integrin αIIb subunit of αIIbβ3 (human (endogenous in platelets)) (receptor)” as the substance, how does the binding [1] read?
A: binds

Q: What about the binding [2] of the same substance?
A: binds
